PubChem BioAssay AID1259276 | Sanger Institute – 2017
Shown is one part, drawn at random, of 794 reagents. 24 of all reagents (3%) count as active. 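Calls come only from the siRNA-alone arm; drug synergy scores do not affect them.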 Viability is capped at 1. Further read-outs or replicates are left out here. Not stated in the record: the amount of reagent, the time to read-out.

Assay: 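Kinase knock-downs that reduce colorectal cancer cell viability alone or with anchor drugs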 (primary screen)
Cells: human C2BBe1 colorectal cancer cells
Reagents: siRNA pool against human genes
Treatment: DMSO vehicle, or one anchor drug: BYL719 at 1 µM, cetuximab at 5 µg/ml, or trametinib at 10 nM; exposure length not stated
Measurement: 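Cell viability as a fraction of non-targeting control wells, mean of replicates, also as a control-based robust z-score, plus a synergy score for each anchor drug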
Reading the numbers: viability robust z-score, siRNA alone and viability vs control, siRNA alone: higher = more viable cells after knock-down; synergy score with BYL719: higher = stronger combined killing with BYL719; synergy score with cetuximab: higher = stronger combined killing with cetuximab
Rule for the call: 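Called essential when knock-down alone gives a viability robust z-score below -3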
Calls: active = essential (siRNA alone); inactive = no change (siRNA alone)

viability robust z-score, siRNA alone	viability vs control, siRNA alone	synergy score with BYL719	synergy score with cetuximab	Outcome	gene symbol
0.472	1	0.0188	-0.0115	inactive	MAP3K10
0.472	1	0.0426	0.00649	inactive	MOS
0.472	1	-0.0884	0.111	inactive	UCK1
0.472	1	0.16	0.153	inactive	MAPK12
0.472	1	-0.0388	-0.0115	inactive	PANK3
0.472	1	0.284	0.218	inactive	PIK3R4
0.472	1	-0.0148	-0.0115	inactive	STK32B

2 entries from above, showing only “viability robust z-score, siRNA alone”.
MAP3K10: 0.472
MOS: 0.472

More results follow:
viability robust z-score, siRNA alone	viability vs control, siRNA alone	synergy score with BYL719	synergy score with cetuximab	Outcome	gene symbol
-0.679	0.927	-0.115	-0.0832	inactive	AK4
0.472	1	-0.142	-0.0115	inactive	RPS6KA3
0.472	1	0.0849	-0.0115	inactive	PDGFRA
0.472	1	-0.142	-0.0115	inactive	ACSL6
0.472	1	0.197	0.186	inactive	ADCK2
0.472	1	0.0363	-0.0115	inactive	ETNK1
-0.85	0.917	-0.0393	-0.0938	inactive	ADCK5
0.472	1	0.0749	-0.0115	inactive	PRAG1
-1.83	0.855	0.0286	0.00191	inactive	PIP5K1B
